Test results: PubChem BioAssay AID330 (DTP/NCI, 2004)
The list shows only some results of the screen, not a fair sample: it is rich in T/C values a quarter to a half above the control, in often repeated tests (any T/C) and in doses without a T/C. Further doses and runs are listed elsewhere. T/C: endpoint of the treated group in % of that of the vehicle group. Some entries give survivors of the animals treated and no T/C: the source files T/C as zero there, which appears to mark a toxic dose or a test without result, not a measured value. Some doses without a T/C left all or most animals alive at the check, yet need not have been tolerated: the source hardly ever lists a survival T/C far under the control, and the zero likely stands for such cases as well. Counts of survivors are from the toxicity check (mostly the fifth day) where no day follows; animals may have died later. Schedules are NCI's codes, taken here to give the interval after Q, in days (D) or hours (H), and the number of doses after X. Some structures stand for samples that the source files as different forms (salt, stereo form or complex); doses refer to the form tested. Additions like (4×) stand for listed records that agree. Where survival is the endpoint, the PubChem record calls one and a half times the control and up active, and a quarter to a half above the control has no call in these data; cut-offs in other NCI protocols can differ.

Tested on: P388 leukemia ip, CD2F1 mice, survival T/C
Test: NCI In Vivo Anticancer Drug Screen. Data for tumor model P388 Leukemia (intraperitoneal) in CD2F1 (CDF1) mice
Details: T/C endpoint: median survival time, higher T/C = longer survival
[1] = dose: 50.0 mg/kg/injection, schedule: Q01DX009 (ip), vehicle: saline
[2] = dose: 100.0 mg/kg/injection, schedule: Q01DX005 (ip), vehicle: saline
[3] = dose: 200.0 mg/kg/injection, schedule: Q01DX005 (ip), vehicle: saline

COC1=CC(=O)N(C(=O)C2CSC(C(CO)NC(=O)c3csc(/C=N/O)n3)=N2)C1 (stereo not given)
T/C (dose: 100.0 mg/kg/injection, schedule: Q01DX009 (ip), vehicle: Klucel (hydroxypropylcellulose) (HPC)): 140 % of control
T/C (dose: 200.0 mg/kg/injection, schedule: Q01DX009 (ip), vehicle: Klucel (hydroxypropylcellulose) (HPC)): 136 % of control
T/C (dose: 400.0 mg/kg/injection, schedule: Q01DX009 (ip), vehicle: Klucel (hydroxypropylcellulose) (HPC)): 141 % of control

CSC1CC(C)(O)Cc2cc3c(c(O)c21)C(=O)c1c(O)cc2c(c1C3=O)OC1OC2(C)C(O)C(N(C)C)C1O (stereo not given)
T/C (dose: 2.0 mg/kg/injection, schedule: Q01DX009 (ip), vehicle: other): 131 % of control
T/C (dose: 4.0 mg/kg/injection, schedule: Q01DX009 (ip), vehicle: other): 129 % of control
T/C (dose: 8.0 mg/kg/injection, schedule: Q01DX009 (ip), vehicle: other): 137 % of control
survivor count (dose: 32.0 mg/kg/injection, schedule: Q01DX009 (ip), vehicle: other): 1 of 6

CC1CCCC(C2CC3CCCCC3C(N)[N-]2)[N-]1.CC1CCCC(C2CC3CCCCC3C(N)[N-]2)[N-]1.O=[N+]([O-])O.[Cu+] (stereo not given)
survivor count (dose: 400.0 mg/kg/injection, schedule: Q04DX002 (ip), vehicle: suspension in saline): 1 of 6

CC(C)(C#N)Nc1ccccc1
survivor count (dose: 12.5 mg/kg/injection, schedule: Q04DX003 (ip), vehicle: saline with Tween-80): 0 of 6

C(=Nc1ccccc1-c1ccccc1N=Cc1ccccc1)c1ccccc1
survivor count (dose: 3.12 mg/kg/injection, schedule: Q01DX009 (ip), vehicle: saline): 6 of 6
survivor count (dose: 12.5 mg/kg/injection, schedule: Q01DX009 (ip), vehicle: saline with Tween-80): 6 of 6
survivor count [1]: 5 of 6

c1ccc(C(NC2=NCCCCCC2)c2ccco2)cc1 (stereo not given)
survivor count (dose: 60.0 mg/kg/injection, schedule: Q01DX005 (ip), vehicle: saline with Tween-80): 0 of 6
survivor count (dose: 120.0 mg/kg/injection, schedule: Q01DX005 (ip), vehicle: saline with Tween-80): 0 of 6
survivor count (dose: 240.0 mg/kg/injection, schedule: Q01DX005 (ip), vehicle: saline with Tween-80): 0 of 6

CCCCCCCCCCCCCC[N+]1(CC)CCOCC1
survivor count [1]: 2 of 6
survivor count (dose: 100.0 mg/kg/injection, schedule: Q01DX009 (ip), vehicle: saline): 0 of 6
survivor count (dose: 200.0 mg/kg/injection, schedule: Q01DX009 (ip), vehicle: saline): 0 of 6

O=C(N/C(=C\c1ccccc1)C(=O)N1CCN(Cc2ccccc2)CC1)c1ccccc1
survivor count (dose: 200.0 mg/kg/injection, schedule: Q01DX005 (ip), vehicle: saline with Tween-80): 6 of 6

O=S(=O)(OI(O)c1ccccc1)c1ccccc1
survivor count (dose: 100.0 mg/kg/injection, schedule: Q01DX009 (ip), vehicle: water): 5 of 6
survivor count (dose: 200.0 mg/kg/injection, schedule: Q01DX009 (ip), vehicle: water): 1 of 6

CC1(C)N=C(N)N=C(N)N1c1ccc(Cl)cc1Cl
survivor count [2]: 0 of 5
survivor count [3]: 0 of 5

CC1=C(Cl)CC(/C(C)=C/Cl)OC1(O)CBr (stereo not given)
survivor count (dose: 0.75 mg/kg/injection, schedule: Q01DX009 (ip), vehicle: Klucel (hydroxypropylcellulose) (HPC)): 5 of 6
survivor count (dose: 1.5 mg/kg/injection, schedule: Q01DX009 (ip), vehicle: Klucel (hydroxypropylcellulose) (HPC)): 4 of 6
survivor count (dose: 3.0 mg/kg/injection, schedule: Q01DX009 (ip), vehicle: Klucel (hydroxypropylcellulose) (HPC)): 0 of 6

CCOP(=O)(O)C1CCCC(C)[N-]1.CCOP(=O)(O)C1CCCC(C)[N-]1.[Cu+2] (stereo not given)
survivor count (dose: 50.0 mg/kg/injection, schedule: Q04DX003 (ip), vehicle: Klucel (hydroxypropylcellulose) (HPC)): 0 of 6
survivor count (dose: 100.0 mg/kg/injection, schedule: Q04DX003 (ip), vehicle: Klucel (hydroxypropylcellulose) (HPC)): 0 of 6
survivor count (dose: 200.0 mg/kg/injection, schedule: Q04DX003 (ip), vehicle: Klucel (hydroxypropylcellulose) (HPC)): 0 of 6
survivor count (dose: 400.0 mg/kg/injection, schedule: Q04DX003 (ip), vehicle: Klucel (hydroxypropylcellulose) (HPC)): 0 of 6

NC=NC(CCC(=O)O)C(=O)O (stereo not given)
survivor count [2]: 0 of 6
survivor count [3]: 0 of 6 (2×)

CC(=O)NCc1ccc(N2C(N)=NC(N)=NC2(C)C)cc1
survivor count (dose: 100.0 mg/kg/injection, schedule: Q04DX002 (ip), vehicle: saline): 6 of 6
survivor count (dose: 200.0 mg/kg/injection, schedule: Q04DX002 (ip), vehicle: saline): 0 of 6
survivor count (dose: 400.0 mg/kg/injection, schedule: Q04DX002 (ip), vehicle: saline): 0 of 6
